Results from the supplement of paper PMC6078165.

Test system: HCC1143
Assay: relative JC-1 red fluorescence (viability) vs pre-drug, coculture with fibroblast (fraction); higher = more viable cancer cells
Procedure: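 JC-1 labelled TNBC cells cocultured 1:1 (1,500 cells each) with CellTrace Violet stained primary or stromal fibroblasts in 384-well plates in FluoroBrite medium, treated with one of 42 anticancer drugs at 0.1, 1, 10 or 100 uM. JC-1 red fluorescence (mitochondrial integrity in cancer cells only) was read by plate reader every 8 h for 72 h. Values are normalised to each well's pre-drug value. The stock of one drug was tenfold lower, so its dose labels may be too high.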

Nc1ncn([C@@H]2O[C@H](CO)[C@@H](O)[C@H]2O)c(=O)n1 [Azacitidine]
relative JC-1 red fluorescence
Settings	8 h	16 h	24 h	32 h	40 h	48 h	56 h	64 h	72 h
10 µM, coculture fibroblast: C12385	0.834	0.7809	0.738	0.687	0.63	0.596	0.564	0.529	0.52
10 µM, coculture fibroblast: H6013	0.697	0.628	0.579	0.57	0.517	0.508	0.491	0.483	0.457
10 µM, coculture fibroblast: H6019	0.817	0.746	0.715	0.675	0.642	0.626	0.581	0.551	0.525
10 µM, coculture fibroblast: H6076	0.774	0.734	0.691	0.659	0.604	0.585	0.567	0.549	0.559
10 µM, coculture fibroblast: H6231	0.821	0.812	0.7452	0.622	0.632	0.596	0.552	0.516	0.48
10 µM, coculture fibroblast: HADF	0.719	0.668	0.64	0.649	0.548	0.519	0.5	0.4766	0.4894
10 µM, coculture fibroblast: HCFa	0.767	0.6953	0.657	0.658	0.58	0.56	0.532	0.504	0.473
10 µM, coculture fibroblast: HCPF	0.806	0.846	0.794	0.656	0.6995	0.6448	0.6013	0.5538	0.531
10 µM, coculture fibroblast: HHSteC	0.82809	0.77	0.7422	0.712	0.6433	0.6231	0.587	0.56	0.519
10 µM, coculture fibroblast: HMF	0.788	0.7788	0.728	0.689	0.646	0.618	0.593	0.56509	0.541
10 µM, coculture fibroblast: HPFa	0.86578	0.786	0.76967	0.6783	0.626	0.595	0.543	0.512	0.489
10 µM, coculture fibroblast: HUF	0.884	0.805	0.75683	0.69515	0.64	0.603	0.5542	0.518	0.488
10 µM, coculture fibroblast: Hs5	0.842	0.904	0.84	0.789	0.735	0.694	0.652	0.62	0.603
10 µM, coculture fibroblast: Hs27A	0.682	0.622	0.587	0.619	0.501	0.491	0.458	0.445	0.44
10 µM, coculture fibroblast: Hs343T	0.8209	0.871	0.798	0.692	0.69	0.639	0.591	0.559	0.517
10 µM, coculture fibroblast: WS1	0.855	0.768	0.711	0.632	0.567	0.521	0.472	0.437	0.407
100 µM, coculture fibroblast: C12385	0.832	0.76	0.728	0.696	0.665	0.652	0.629	0.602	0.583
100 µM, coculture fibroblast: H6013	0.663	0.56	0.505	0.473	0.436	0.437	0.418	0.41	0.349
100 µM, coculture fibroblast: H6019	0.743	0.6271	0.546	0.485	0.452	0.456	0.446	0.453	0.455
100 µM, coculture fibroblast: H6076	0.776	0.745	0.6633	0.617	0.549	0.533	0.511	0.492	0.519
100 µM, coculture fibroblast: H6231	0.807	0.78345	0.7043	0.61	0.599	0.575	0.537	0.506	0.492
100 µM, coculture fibroblast: HADF	0.735	0.666	0.63	0.631	0.542	0.518	0.495	0.477	0.475
100 µM, coculture fibroblast: HCFa	0.7407	0.676	0.625	0.596	0.538	0.518	0.483	0.465	0.434
100 µM, coculture fibroblast: HCPF	0.8054	0.7883	0.7507	0.683	0.68	0.654	0.626	0.599	0.598
100 µM, coculture fibroblast: HHSteC	0.772	0.72	0.695	0.676	0.634	0.622	0.591	0.578	0.518
100 µM, coculture fibroblast: HMF	0.7787	0.794	0.737	0.663	0.651	0.623	0.595	0.565	0.545
100 µM, coculture fibroblast: HPFa	0.9	0.8004	0.77414	0.701	0.669	0.66	0.617	0.594	0.573
100 µM, coculture fibroblast: HUF	0.87	0.776	0.735	0.658	0.612	0.583	0.544	0.517	0.501
100 µM, coculture fibroblast: Hs5	0.807	0.82	0.757	0.707	0.639	0.605	0.572	0.5437	0.5345
100 µM, coculture fibroblast: Hs27A	0.6968	0.6001	0.5997	0.626	0.538	0.545	0.5265	0.51557	0.497
100 µM, coculture fibroblast: Hs343T	0.773	0.786	0.742	0.693	0.679	0.659	0.628	0.611	0.598
100 µM, coculture fibroblast: WS1	0.8	0.714	0.666	0.602	0.566	0.537	0.511	0.483	0.472

The reference is the same well before dosing, and untreated signal decays as well.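 Labels refer to human fibroblasts, largely primary: uterine (C12385, HUF), lung (H6013), bone (Hs27A), adrenal (HADF), skin (WS1), plus mammary HMF and breast cancer-associated Hs343T. Cancer lines are basal-like or mesenchymal-like triple-negative breast cancer. The paper counts as hits responses shifting over 3x the replicate standard deviation. The tissue of the other fibroblasts is not given here.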
